Test results reported in publication PMC4734655.
No constants are given. Whether binding was seen depends on the method and setting. For some assays here: A result given as binding can be weak or reduced; the word gives no strength. Sequences can lack the tags named with a protein.

Tests used:
[1] = target: T1, recombinant M. tuberculosis rSerA (His-tagged, from pHis-serA) (Mycobacterium tuberculosis H37Rv) (UniProt P9WNX3); assay: far-Western, overlay or dot blot; recombinant Mtb proteins separated by SDS-PAGE (12%) and transferred to nitrocellulose; incubated with recombinant human IL-8 at 5 ug/ml, 2 h, room temperature; bound IL-8 detected with anti-human IL-8 goat polyclonal IgG; both purified
T1 sequence: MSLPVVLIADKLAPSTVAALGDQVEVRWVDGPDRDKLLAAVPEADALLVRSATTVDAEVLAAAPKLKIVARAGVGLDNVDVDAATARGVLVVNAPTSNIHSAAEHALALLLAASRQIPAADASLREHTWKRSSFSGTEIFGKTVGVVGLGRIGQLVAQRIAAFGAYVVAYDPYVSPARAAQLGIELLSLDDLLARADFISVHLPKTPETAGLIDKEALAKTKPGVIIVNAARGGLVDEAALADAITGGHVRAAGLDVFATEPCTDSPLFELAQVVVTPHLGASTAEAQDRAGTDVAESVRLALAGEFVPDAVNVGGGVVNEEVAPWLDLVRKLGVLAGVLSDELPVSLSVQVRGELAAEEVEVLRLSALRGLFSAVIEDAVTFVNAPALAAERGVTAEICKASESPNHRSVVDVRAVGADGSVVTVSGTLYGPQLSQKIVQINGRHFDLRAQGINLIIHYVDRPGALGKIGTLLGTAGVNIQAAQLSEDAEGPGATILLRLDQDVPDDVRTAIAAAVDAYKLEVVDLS

[2] = target: T2, recombinant M. tuberculosis rAtsG (His-tagged, from pHis-atsG) (Mycobacterium tuberculosis H37Rv) (UniProt Q6MX51); assay: as above
T2 sequence: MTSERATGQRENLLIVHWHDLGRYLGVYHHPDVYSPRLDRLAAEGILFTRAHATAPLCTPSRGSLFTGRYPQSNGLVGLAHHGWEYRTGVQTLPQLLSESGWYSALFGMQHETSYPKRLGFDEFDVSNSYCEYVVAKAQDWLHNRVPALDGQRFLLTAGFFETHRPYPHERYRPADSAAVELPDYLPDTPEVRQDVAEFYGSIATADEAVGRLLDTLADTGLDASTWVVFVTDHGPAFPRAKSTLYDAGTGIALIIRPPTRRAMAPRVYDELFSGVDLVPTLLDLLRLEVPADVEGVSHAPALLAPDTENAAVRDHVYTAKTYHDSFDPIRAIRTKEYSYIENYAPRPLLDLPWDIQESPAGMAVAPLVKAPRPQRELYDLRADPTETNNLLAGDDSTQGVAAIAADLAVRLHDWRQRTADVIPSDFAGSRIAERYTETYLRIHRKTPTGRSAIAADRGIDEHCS

recombinant human IL-8 (interleukin-8) (ligand)
binding [1]: no binding (tested: 5 μg/ml) | binding [2]: binds
